Data: paper doi:10.1101/2020.02.19.956243
Results are given in words; binding and its absence hold for the method and conditions named. In cells and extracts the contact can be indirect. Some binding calls cover weakened binding; strength is not graded here. For some of these results: Tags and fused reporters may be left off the sequences shown.

Amino acid sequences for entries named in this document (tags omitted).
UniProt Q13547: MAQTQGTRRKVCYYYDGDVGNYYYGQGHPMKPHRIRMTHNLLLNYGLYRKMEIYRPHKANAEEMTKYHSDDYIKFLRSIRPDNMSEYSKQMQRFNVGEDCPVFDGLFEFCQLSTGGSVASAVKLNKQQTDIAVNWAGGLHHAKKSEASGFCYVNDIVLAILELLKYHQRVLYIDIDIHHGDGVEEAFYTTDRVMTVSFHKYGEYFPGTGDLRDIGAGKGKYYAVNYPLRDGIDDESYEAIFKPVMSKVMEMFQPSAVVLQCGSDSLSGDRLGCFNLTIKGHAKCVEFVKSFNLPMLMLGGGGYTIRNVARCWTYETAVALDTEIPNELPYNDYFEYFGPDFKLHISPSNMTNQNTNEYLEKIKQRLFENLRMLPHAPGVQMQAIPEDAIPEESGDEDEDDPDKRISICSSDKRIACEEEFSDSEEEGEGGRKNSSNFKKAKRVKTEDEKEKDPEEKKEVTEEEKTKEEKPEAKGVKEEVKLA
UniProt P31258: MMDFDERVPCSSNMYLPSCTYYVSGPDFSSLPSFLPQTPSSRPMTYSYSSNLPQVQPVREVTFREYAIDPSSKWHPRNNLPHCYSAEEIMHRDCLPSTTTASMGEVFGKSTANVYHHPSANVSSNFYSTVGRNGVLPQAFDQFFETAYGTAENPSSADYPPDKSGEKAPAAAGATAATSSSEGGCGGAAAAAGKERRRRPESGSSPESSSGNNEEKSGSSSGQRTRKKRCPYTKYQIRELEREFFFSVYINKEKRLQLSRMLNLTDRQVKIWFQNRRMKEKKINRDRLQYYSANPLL
UniProt P31311: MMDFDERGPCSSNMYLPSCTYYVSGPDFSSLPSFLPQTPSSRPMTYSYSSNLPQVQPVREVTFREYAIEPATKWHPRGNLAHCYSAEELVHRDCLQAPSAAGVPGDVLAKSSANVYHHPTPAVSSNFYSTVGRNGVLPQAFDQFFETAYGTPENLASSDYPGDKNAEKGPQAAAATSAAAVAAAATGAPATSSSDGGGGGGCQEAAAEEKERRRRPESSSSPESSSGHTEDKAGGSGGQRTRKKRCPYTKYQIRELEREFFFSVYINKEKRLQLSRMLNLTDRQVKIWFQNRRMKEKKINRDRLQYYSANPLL

Columns and labels:
HA-tagged HDAC1 = HA-tagged HDAC1 (UniProt Q13547); assay: co-IP
HA-tagged SIN3A = target: T1, HA-tagged SIN3A (UniProt Q96ST3); assay: co-IP
T1 sequence: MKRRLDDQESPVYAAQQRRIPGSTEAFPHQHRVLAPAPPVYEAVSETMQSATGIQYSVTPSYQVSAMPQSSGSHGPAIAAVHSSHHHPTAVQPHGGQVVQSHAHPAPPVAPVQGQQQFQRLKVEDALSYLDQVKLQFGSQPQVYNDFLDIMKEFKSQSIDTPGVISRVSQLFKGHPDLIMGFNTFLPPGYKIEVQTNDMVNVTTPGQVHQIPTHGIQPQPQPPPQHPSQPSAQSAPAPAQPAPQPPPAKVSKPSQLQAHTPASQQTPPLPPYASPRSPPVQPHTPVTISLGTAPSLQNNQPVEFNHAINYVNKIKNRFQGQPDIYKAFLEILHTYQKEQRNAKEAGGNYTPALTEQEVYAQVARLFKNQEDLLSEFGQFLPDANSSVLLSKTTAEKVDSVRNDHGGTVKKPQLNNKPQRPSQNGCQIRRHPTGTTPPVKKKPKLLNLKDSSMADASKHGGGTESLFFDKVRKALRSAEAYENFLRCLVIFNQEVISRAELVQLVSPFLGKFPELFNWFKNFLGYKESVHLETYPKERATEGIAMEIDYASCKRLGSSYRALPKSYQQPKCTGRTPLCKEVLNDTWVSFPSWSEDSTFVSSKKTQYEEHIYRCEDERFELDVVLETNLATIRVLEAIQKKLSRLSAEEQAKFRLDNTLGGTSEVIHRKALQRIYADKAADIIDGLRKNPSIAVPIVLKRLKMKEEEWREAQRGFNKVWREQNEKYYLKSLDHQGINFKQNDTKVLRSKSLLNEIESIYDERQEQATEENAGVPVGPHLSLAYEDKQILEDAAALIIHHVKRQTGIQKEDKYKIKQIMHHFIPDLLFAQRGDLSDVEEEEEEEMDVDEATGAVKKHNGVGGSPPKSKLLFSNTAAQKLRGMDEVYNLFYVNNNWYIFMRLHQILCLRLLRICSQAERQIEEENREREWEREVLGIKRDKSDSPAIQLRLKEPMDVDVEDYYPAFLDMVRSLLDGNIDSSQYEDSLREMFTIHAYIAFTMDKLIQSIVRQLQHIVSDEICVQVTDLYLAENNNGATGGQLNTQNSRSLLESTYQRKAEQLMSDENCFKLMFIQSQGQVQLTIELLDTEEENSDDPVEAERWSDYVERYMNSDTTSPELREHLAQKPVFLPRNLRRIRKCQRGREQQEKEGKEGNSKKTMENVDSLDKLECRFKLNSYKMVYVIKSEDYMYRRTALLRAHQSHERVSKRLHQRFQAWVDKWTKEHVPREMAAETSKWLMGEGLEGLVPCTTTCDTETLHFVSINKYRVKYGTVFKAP

| binding (HA-tagged HDAC1) | binding (HA-tagged SIN3A) | Substance |
| --- | --- | --- |
| no binding | no binding | chicken HoxA11 protein (from UniProt P31258 1-297) |
| binds | binds | FLAG-tagged full length HoxA11 (mouse) (from UniProt P31311 1-313) |
